No constants are given. Whether binding was seen depends on the method and setting. In cells and extracts the contact can be indirect. For part of these data: Binding can be weak; no strength is given.
Assays:
Experiment in all cases: split reporter; BIFC in Nicotiana benthamiana leaf cells: SCC (SCFP3A C155)-SPF30.1 co-expressed with partner-SCN (SCFP3A N173) by infiltration of mixed Agrobacterium GV3101 cultures; cyan fluorescence read by confocal microscopy after two days
[1] = molecular target: T1, U2AF65a (Arabidopsis U2 snRNP auxiliary factor large subunit a) (Arabidopsis thaliana) (UniProt O23212)
T1 sequence: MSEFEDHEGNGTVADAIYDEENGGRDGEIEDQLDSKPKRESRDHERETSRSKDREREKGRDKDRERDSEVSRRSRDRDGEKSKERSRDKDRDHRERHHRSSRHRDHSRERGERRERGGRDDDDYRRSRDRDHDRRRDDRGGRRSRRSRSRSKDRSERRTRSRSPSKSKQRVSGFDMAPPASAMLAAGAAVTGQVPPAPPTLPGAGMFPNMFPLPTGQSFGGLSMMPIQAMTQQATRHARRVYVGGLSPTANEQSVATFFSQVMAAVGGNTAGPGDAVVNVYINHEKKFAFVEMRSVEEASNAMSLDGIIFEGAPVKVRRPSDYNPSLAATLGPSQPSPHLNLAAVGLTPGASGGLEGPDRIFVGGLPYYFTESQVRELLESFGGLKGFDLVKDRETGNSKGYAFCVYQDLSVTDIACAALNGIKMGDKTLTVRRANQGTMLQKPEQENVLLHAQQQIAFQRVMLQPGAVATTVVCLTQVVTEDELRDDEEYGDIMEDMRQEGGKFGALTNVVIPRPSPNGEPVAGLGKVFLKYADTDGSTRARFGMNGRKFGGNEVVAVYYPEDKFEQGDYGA

[2] = molecular target: T2, U2AF35b (Arabidopsis U2 snRNP auxiliary factor small subunit b) (Arabidopsis thaliana) (UniProt Q9FMY5)
T2 sequence: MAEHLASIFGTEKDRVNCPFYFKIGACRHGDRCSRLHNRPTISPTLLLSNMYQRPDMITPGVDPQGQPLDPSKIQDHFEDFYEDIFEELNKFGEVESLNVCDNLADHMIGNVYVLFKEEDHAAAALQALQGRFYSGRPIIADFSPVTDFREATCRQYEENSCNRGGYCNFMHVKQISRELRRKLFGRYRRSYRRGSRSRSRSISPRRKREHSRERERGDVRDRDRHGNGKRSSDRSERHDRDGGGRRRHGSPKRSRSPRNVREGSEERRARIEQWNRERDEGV

[3] = molecular target: T3, U1A (Arabidopsis U1 snRNP protein A) (Arabidopsis thaliana) (UniProt Q39244)
T3 sequence: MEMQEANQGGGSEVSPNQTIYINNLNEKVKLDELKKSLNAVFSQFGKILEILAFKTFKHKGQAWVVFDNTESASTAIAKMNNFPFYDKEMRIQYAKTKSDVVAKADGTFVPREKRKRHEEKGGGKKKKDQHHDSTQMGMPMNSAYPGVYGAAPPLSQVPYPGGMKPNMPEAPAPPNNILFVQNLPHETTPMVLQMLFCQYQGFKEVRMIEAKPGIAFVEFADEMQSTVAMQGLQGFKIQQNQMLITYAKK

[4] = molecular target: T4, U1-70K (Arabidopsis U1 snRNP 70K protein) (Arabidopsis thaliana) (UniProt Q42404)
T4 sequence: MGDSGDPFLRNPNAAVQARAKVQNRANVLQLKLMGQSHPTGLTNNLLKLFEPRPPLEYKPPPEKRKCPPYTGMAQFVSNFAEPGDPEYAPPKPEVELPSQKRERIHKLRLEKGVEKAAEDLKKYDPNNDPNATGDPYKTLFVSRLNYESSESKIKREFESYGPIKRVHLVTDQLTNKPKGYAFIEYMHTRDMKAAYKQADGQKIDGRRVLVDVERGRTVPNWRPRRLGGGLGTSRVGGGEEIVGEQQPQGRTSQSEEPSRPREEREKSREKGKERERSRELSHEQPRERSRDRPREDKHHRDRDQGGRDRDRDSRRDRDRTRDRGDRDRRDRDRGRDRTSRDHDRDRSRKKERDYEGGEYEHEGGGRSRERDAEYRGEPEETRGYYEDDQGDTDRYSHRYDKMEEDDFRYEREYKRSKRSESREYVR

[5] = molecular target: T5, U2A (Arabidopsis U2 snRNP protein A') (Arabidopsis thaliana) (UniProt P43333)
T5 sequence: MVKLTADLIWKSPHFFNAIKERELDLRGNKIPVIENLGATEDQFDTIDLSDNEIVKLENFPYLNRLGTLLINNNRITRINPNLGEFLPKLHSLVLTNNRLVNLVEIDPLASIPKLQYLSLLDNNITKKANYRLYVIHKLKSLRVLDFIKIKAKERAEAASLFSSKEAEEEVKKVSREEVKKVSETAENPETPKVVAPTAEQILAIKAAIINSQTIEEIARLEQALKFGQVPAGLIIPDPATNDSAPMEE

[6] = molecular target: T6, RNA-DIRECTED DNA …ON 16 (RDM16), the Arabidopsis homolog of hPrp3 (Arabidopsis thaliana) (UniProt Q9C7E7)
T6 sequence: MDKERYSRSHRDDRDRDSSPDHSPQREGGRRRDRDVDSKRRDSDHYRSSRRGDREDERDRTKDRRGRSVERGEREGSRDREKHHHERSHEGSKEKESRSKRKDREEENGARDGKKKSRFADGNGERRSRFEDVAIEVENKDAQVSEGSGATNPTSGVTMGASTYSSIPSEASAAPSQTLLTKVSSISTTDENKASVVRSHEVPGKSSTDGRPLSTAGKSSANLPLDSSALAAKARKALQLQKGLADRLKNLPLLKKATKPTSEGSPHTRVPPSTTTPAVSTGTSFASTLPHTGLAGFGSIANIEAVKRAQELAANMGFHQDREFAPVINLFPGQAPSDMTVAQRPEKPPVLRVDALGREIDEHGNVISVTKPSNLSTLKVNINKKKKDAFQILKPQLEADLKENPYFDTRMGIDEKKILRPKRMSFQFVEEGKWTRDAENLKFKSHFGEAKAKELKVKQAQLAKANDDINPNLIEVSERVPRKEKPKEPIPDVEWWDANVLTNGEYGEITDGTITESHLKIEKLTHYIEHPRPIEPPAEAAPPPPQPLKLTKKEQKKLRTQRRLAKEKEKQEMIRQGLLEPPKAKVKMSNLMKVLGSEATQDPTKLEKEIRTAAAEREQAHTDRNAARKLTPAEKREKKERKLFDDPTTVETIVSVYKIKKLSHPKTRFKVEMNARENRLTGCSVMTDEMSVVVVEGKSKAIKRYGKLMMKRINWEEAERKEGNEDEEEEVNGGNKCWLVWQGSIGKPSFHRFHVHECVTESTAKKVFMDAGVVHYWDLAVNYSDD

- binding [1]: binds
- binding [2]: binds
- binding [3]: binds
- binding [4]: no binding
- binding [5]: no binding
- binding [6]: binds
Substance: Splicing factor 30, isoform SPF30.1 (Arabidopsis)

Reference: PMC12393150
